The other results are listed elsewhere or left out. Shown are side measurements of this screen, not its main read-out; they come without a call. The list favours compounds with an active or inconclusive main result. Words in brackets tell the shape of the fitted curve; partial curves, single points and poor fits give uncertain potencies.
Assay: qHTS Assay for Lipid Storage Modulators in Drosophila S3 Cells;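 for cell number change: cells counted by Cell Tracker Red CMTPX staining in the red channel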
Settings: BODIPY lipid droplet fluorescence, 18-24 h; for cell number change: measured here: cell count max response, cells fed with added oleic acid
Procedure, shortened: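 Laser-scanning cytometry quantifies lipid droplet accumulation (500–530 nm total intensity; droplet/cell object ratio) in oleic acid-fed (400 uM added) Drosophila S3 cells treated with a concentration series. 20 uM Triacsin C defined 100% inhibition.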

[1] = measured here: lipid fluorescence (Fed channel) AC50, cells fed with added oleic acid
[2] = measured here: cell number channel AC50, cells fed with added oleic acid

With `O=[N+]([O-])c1ccc(CSc2nnc(Cc3ccccc3)o2)cc1` the cell number change was 16.2% and the AC50 [1] was 14.6 µM [rising, partial curve, poor fit].

Molecule `O=C(Nc1nc(-c2cccs2)cs1)c1ccco1` has a cell number change of 19.5%.

`Cc1ccc(CN(CC(=O)NC2CCCC2)C(=O)c2csnn2)cc1` gave a cell number change of 14.1%.

`Cc1cc(Br)ccc1NC(=O)CN(C)C(=O)CN1C(=O)NC(C)(C2CC2)C1=O` (stereo not drawn) gave a cell number change of 4.69%.

With `COCCCNC(=O)c1c(NC(=O)C2COc3ccccc3O2)sc2c1CCCC2` (stereo not drawn) the AC50 [1] was 6.51 µM [falling, single point].

With `CCOC(=O)C1(Cc2cccc(Cl)c2)CCCN(C(=O)CCNC(C)=O)C1` (stereo not drawn) the AC50 [2] was 0.00411 µM [rising, full curve, poor fit] and the AC50 [1] was 29.1 µM [rising, single point].

With `CC(C)(Cc1ccc(O)cc1)NC(=O)c1ccccc1` the AC50 [1] was 4.61 µM [rising, single point].

For `COc1cccc(C(=O)C2CCCN(Cc3c(C)n(C)n(-c4ccccc4)c3=O)C2)c1` (stereo not drawn), the cell number change was -11.9% and the AC50 [1] was 6.51 µM [falling, single point].

With `Cc1ccccc1C(=O)Nc1cc(NC(=O)c2ccccc2C)cc(C(=O)O)c1` the cell number change was -8.01% and the AC50 [1] was 6.51 µM [rising, single point].

With `Cc1nn(-c2ccccc2)c(Oc2ccc(F)cc2)c1/C=N/n1cnnc1` the cell number change was -14.3% and the AC50 [1] was 6.51 µM [falling, single point].

For `Cc1ccc(-n2ncc(Br)c(Br)c2=O)cc1`, the cell number change was -7.12%.

With `COc1ccc(-c2nc(CSCC(=O)NC3CCCC3)c(C)o2)cc1OC` the AC50 [2] was 1.3 µM [rising, partial curve, poor fit].

For `O=C(CCN1C(=O)c2ccccc2S1(=O)=O)Nc1cccc2ccccc12`, the cell number change was -27.4% and the AC50 [1] was 23.1 µM [falling, single point].

With `CCOC(=O)CSC1=Nc2ccccc2C2=NC(CC(=O)NCc3ccc4c(c3)OCO4)C(=O)N12` (stereo not drawn) the cell number change was 6.09% and the AC50 [1] was 29.1 µM [rising, single point].

In the case of `CCn1c(SCC(=O)OCC(=O)N2c3ccccc3NC(=O)C2(C)C)nnc1-c1ccco1`, the AC50 [2] is reported as 0.103 µM [rising, full curve, poor fit].

For `O=C(N1CCN(c2ccccc2)CC1)C1(S(=O)(=O)c2ccc(Cl)cc2)CC1`, the cell number change was -2.86% and the AC50 [1] was 0.231 µM [rising, full curve, poor fit].

Molecule `CC(OC(=O)CCN=C1NS(=O)(=O)c2ccccc21)C(=O)NC1CCCCC1C` (stereo not drawn) has a cell number change of 15%.

With `Cc1ccc(OCC(=O)NNC(=O)C(=O)N2CCCC2)c(C)c1` the AC50 [1] was 0.651 µM [rising, single point].

With `COCCCn1c(SCC(=O)NC2CCCC2)nnc1-c1ccccc1` the cell number change was 16.7% and the AC50 [1] was 29.1 µM [rising, single point].

For `C/C(N)=C(/C#N)C(=O)CSc1nc2cc(Cl)ccc2c(=O)n1-c1ccc(C)cc1`, the cell number change was -25.2% and the AC50 [1] was 29.1 µM [falling, single point].

In the case of `O=C(CN1C(=O)c2ccccc2C1=O)Nc1cccc2cccnc12`, the cell number change is reported as 0.659% and the AC50 [1] is reported as 0.58 µM [rising, single point].

In the case of `Clc1ccc(OCCOCCOc2cccc3cccnc23)c(Br)c1`, the cell number change is reported as 28.3% and the AC50 [1] is reported as 14.6 µM [rising, partial curve].

With `CCOc1ccc(CC(=O)Nc2c3c(nn2C(C)(C)C)CS(=O)(=O)C3)cc1` the AC50 [1] was 29.1 µM [falling, single point].

With `Cc1ccc2[nH]ccc(=O)c2c1` the cell number change was -10.7% and the AC50 [1] was 3.26 µM [falling, single point].

Work on `Cc1nc2ccc(Br)cn2c(=O)c1Cl` yielded a cell number change of 2.2%.

For `O=S1(=O)CCC(NS(=O)(=O)c2cccc3cccnc23)C1` (stereo not drawn), the cell number change was -18.7% and the AC50 [1] was 0.58 µM [falling, full curve].

With `COc1ccc2nc(/N=C(\N)NC(=O)N3c4ccccc4Sc4ccccc43)nc(C)c2c1` the cell number change was -4.4% and the AC50 [1] was 29.1 µM [falling, partial curve].

For `CC1=Nn2c(nc(-c3ccccc3)c2-c2ccccc2)NC(=O)C1Br` (stereo not drawn), the cell number change was -7.79% and the AC50 [1] was 6.51 µM [rising, single point].

With `CC(/C=N/n1c(-c2cc(C)[nH]n2)n[nH]c1=S)=C\c1ccccc1` the cell number change was -19.7% and the AC50 [1] was 1.16 µM [rising, partial curve].

For `Cc1nc(CN(C)C(=O)CC2C(=O)NCCN2Cc2ccc(-c3ccccc3)cc2)cs1` (stereo not drawn), the cell number change was 21.6% and the AC50 [1] was 29.1 µM [falling, single point].

With `CCOc1ccc(NC(=O)COC(=O)c2cc([N+](=O)[O-])ccc2N2CCOCC2)cc1` the AC50 [2] was 0.58 µM [rising, full curve] and the AC50 [1] was 0.731 µM [rising, full curve].

With `COc1ccccc1OCc1nc2ccccc2[nH]1` the AC50 [2] was 2.31 µM [rising, partial curve].

With `CCOC(=O)NC(Nc1cc(C)ccn1)(C(F)(F)F)C(F)(F)F` the cell number change was -0.549% and the AC50 [1] was 29.1 µM [falling, single point].

For `CCc1c(SCCC(=O)O)nc2ccccc2c1C`, the cell number change was 32.1% and the AC50 [2] was 23.1 µM [rising, partial curve, poor fit].

For `CCNc1nc2c(c(=O)n(C)c(=O)n2C)n1Cc1ccc(Cl)cc1`, the cell number change was -11.4% and the AC50 [1] was 6.51 µM [rising, single point].

For `O=C(NCc1ccccc1)C1CCCN(c2cnccn2)C1` (stereo not drawn), the cell number change was -17.6% and the AC50 [2] was 0.116 µM [falling, full curve, poor fit].

In the case of `CC(=O)c1cccc(NC(=O)Nc2nc(C)cc(C)n2)c1`, the cell number change is reported as 0.54%.

For `C=CCOc1ccc(Cl)cc1CNC1CCCC1`, the AC50 [2] was 0.731 µM [falling, full curve, poor fit] and the AC50 [1] was 0.00461 µM [falling, full curve, poor fit].

Molecule `COc1ccc(C(=O)/C(C#N)=N/Nc2ccc([N+](=O)[O-])cc2)cc1` has a cell number change of 14%.

For `CCCCCN(C(=O)CCC(=O)OCC(=O)c1ccc(CCC)cc1)c1c(N)n(CCCC)c(=O)[nH]c1=O`, the cell number change was 37.1%, the AC50 [2] was 0.461 µM [rising, full curve, poor fit] and the AC50 [1] was 29.1 µM [rising, single point].

For `Cc1ccc(Cn2c(SCC(=O)N/N=C/c3ccccc3OCC(=O)O)nc3ccccc32)cc1`, the cell number change was 36.4% and the AC50 [2] was 0.517 µM [rising, full curve, poor fit].

Source: PubChem BioAssay AID2685 (National Center for Advancing Translational Sciences (NCATS), 2010)
